Earlier results as cited in patent US9682037B2, “Non-mucoadhesive film dosage forms” (APR APPLIED PHARMA RESEARCH S.A., priority 2006, dated 2017).
Where a name gives a salt, the structure may show the parent alone. Read-outs that look alike come from different tables or passages of the source.

Row | Compound | Cmax (10 mg tablet once daily for ten days) | Tmax (fasted) | Food decreases/lowers Cmax by (with food) | Tmax (in vivo)
1 | O=C(O)COCCN1CCN(C(c2ccccc2)c2ccc(Cl)cc2)CC1 (stereo not shown) [Cetirizine Hydrochloride] | Cmax = 311 ng/ml when 10 mg tablet | Tmax = 1.0 hr. (fasted) hours | by 23% | 
2 | CN1C(=O)CN=C(c2ccccc2)c2cc(Cl)ccc21 [Diazepam] |  |  |  | Tmax = 30-90 minutes
